Measured values as given in US20050267016A1 (priority 2001, published 2005).

Columns and labels:
[1] = general procedure: Fmoc solid-phase peptide synthesis; Wang's alkoxy resin (0.60 mmol/gm loading); HBTU, DIEA; settings: for crude HPLC purity: 254 nm
[2] = general procedure: Fmoc solid-phase peptide synthesis; Wang resin; HBTU, DIEA; settings: whole synthesis, HPLC method A, 254 nm

Fmoc-β-Ala-Ile-Ala-Leu-Dox
conjugation yield ([1]; conjugation step): 88% | crude HPLC purity ([1]; conjugation step, HPLC method A): 92%

Fmoc-β-Ala-Ile-Ala-Leu-OH
crude HPLC purity [2]: 92%

MeOSuc-βAla-Leu-Ala-Leu-Dox
final HPLC purity ([1]; purification step, HPLC (method A, method B)): 96.5%

Suc-βAla-Ile-Ala-Leu-Dox
step yield ([1]; late stage modification step): 78% | crude HPLC purity ([1]; late stage modification step, HPLC method B): 86%

Suc-βAla-Leu-Ala-Leu-Dox.Na
step yield ([1]; late stage modification step, sodium salt): 87%
